The target of this experiment is wild-type Hcf106 (mature, in vitro translated, thylakoid-integrated) (Pisum sativum) (UniProt Q94G16). In words: native gel or EMSA; [3H]Hcf106 variants integrated into isolated pea thylakoid, solubilised with 2% digitonin at ~1 mg/ml chlorophyll, BN-PAGE, fluorography; read-out: migration in the ~700-kDa cpTatC/Hcf106 receptor complex.

No constants are given. Whether binding was seen depends on the method and setting. Some entries that bind do so weakly or less than the wild type.

The results in this text go back to publication PMC6508782.

B1: wild-type Hcf106 (mature, in vitro translated, thylakoid-integrated) (protein, UniProt Q94G16 87-261)
chain: ASLFGVGAPEALVIGVVALLVFGPKGLAEVARNLGKTLREFQPTIREIQDVSREFKSTLEREIGIDDITNPLQSTYSSNVRNTTPTPSATEITNNSQTAVDPNGKVDESKAYSSEEYLKITEEQLKAVAAQQQEQTSSPKEDEIEQQIQPPANETAATVPPPQKPESESSLPSDL
With B1, the binding entry is on record as “binds”.
